The record followed here is patent US20180092962.

The exact form of at least one protein or probe is not confirmed. No signal at the amounts used counts as a negative. Where a protein sequence is shown, tags need not be part of it.

This series has as its target T1, His-sLZIP (human small leucine zipper protein) (Homo sapiens) (UniProt O43889).
T1 sequence: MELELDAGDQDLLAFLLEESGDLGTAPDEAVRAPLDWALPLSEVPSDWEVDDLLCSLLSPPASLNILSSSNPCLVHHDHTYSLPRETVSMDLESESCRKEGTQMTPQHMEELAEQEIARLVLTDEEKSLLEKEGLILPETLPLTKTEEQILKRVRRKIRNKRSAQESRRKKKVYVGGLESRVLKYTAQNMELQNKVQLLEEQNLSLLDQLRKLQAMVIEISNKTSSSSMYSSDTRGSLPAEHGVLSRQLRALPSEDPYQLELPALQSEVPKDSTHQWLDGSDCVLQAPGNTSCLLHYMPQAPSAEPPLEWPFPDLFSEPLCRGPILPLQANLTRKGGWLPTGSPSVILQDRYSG
The series can be described thus: EMSA. To be noted: purified recombinant protein, protein details: His tag (pET-28a(+), E. coli BL21), label: 5'-32P. In general terms: Mobility shift assays separate free from complexed probe on a gel.

For the sequence “GAAGGGATTGATGTCAGCAGGA (double strand) [#2 CREB/AP-1 probe, FABP4 enhancer]”, the binding result (dose-dependent, supershifted by anti-His, competed by 100-fold unlabeled CREB oligo, poly(dI-dC), room temperature) is listed as “binds”.
For the sequence “GAAGGGATTGGGGTCAGCAGGA (double strand) [CREB mutant probe]”, the binding result (AT to GG mutation in CRE abolishes binding, variant of #2 CREB/AP-1 probe, FABP4 enhancer) is reported as “no binding”.
